# From the supplement of paper PMC10849652
# By UniProt entry, the sequences of proteins in these tests, tags left out. Where a name states a change or a piece, a line headed by the entry shows the natural chain unless it says otherwise.
# UniProt P55072, whole entry, looked up: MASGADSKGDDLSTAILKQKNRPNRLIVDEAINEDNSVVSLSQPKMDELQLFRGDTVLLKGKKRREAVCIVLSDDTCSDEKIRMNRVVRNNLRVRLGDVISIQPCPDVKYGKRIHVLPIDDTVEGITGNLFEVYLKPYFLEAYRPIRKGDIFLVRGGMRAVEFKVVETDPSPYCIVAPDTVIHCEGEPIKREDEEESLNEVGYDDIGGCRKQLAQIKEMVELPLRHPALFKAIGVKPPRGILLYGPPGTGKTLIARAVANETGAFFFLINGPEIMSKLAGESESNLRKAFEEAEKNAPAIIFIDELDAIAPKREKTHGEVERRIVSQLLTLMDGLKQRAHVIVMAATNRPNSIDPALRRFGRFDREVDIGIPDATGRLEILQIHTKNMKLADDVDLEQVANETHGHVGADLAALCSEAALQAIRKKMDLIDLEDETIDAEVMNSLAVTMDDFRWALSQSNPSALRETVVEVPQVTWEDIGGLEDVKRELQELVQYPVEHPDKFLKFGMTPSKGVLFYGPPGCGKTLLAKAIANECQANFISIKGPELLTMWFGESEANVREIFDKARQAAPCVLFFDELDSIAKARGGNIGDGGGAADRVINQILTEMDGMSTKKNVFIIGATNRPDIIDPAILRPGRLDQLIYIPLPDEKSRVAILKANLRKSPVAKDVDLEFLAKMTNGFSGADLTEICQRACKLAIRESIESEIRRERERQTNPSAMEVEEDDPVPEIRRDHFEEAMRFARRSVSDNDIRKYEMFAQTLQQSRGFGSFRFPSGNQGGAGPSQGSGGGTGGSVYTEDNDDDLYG
# UniProt Q9UMX0, whole entry, looked up: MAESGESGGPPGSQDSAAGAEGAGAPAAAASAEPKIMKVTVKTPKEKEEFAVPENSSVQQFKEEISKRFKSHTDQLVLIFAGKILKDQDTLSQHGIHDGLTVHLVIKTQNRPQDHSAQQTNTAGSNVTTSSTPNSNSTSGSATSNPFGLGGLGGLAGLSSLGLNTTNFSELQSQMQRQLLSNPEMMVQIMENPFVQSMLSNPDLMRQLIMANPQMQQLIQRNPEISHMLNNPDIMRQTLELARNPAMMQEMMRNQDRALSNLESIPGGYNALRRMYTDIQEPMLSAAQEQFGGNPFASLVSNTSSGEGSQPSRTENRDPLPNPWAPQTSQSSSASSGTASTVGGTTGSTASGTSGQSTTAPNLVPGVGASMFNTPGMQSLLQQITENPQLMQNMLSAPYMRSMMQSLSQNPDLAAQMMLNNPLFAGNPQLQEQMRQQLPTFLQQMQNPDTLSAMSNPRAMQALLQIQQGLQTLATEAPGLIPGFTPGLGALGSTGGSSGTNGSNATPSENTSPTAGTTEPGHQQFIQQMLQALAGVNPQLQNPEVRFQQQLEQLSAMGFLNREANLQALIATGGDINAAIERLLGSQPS
# UniProt O95071: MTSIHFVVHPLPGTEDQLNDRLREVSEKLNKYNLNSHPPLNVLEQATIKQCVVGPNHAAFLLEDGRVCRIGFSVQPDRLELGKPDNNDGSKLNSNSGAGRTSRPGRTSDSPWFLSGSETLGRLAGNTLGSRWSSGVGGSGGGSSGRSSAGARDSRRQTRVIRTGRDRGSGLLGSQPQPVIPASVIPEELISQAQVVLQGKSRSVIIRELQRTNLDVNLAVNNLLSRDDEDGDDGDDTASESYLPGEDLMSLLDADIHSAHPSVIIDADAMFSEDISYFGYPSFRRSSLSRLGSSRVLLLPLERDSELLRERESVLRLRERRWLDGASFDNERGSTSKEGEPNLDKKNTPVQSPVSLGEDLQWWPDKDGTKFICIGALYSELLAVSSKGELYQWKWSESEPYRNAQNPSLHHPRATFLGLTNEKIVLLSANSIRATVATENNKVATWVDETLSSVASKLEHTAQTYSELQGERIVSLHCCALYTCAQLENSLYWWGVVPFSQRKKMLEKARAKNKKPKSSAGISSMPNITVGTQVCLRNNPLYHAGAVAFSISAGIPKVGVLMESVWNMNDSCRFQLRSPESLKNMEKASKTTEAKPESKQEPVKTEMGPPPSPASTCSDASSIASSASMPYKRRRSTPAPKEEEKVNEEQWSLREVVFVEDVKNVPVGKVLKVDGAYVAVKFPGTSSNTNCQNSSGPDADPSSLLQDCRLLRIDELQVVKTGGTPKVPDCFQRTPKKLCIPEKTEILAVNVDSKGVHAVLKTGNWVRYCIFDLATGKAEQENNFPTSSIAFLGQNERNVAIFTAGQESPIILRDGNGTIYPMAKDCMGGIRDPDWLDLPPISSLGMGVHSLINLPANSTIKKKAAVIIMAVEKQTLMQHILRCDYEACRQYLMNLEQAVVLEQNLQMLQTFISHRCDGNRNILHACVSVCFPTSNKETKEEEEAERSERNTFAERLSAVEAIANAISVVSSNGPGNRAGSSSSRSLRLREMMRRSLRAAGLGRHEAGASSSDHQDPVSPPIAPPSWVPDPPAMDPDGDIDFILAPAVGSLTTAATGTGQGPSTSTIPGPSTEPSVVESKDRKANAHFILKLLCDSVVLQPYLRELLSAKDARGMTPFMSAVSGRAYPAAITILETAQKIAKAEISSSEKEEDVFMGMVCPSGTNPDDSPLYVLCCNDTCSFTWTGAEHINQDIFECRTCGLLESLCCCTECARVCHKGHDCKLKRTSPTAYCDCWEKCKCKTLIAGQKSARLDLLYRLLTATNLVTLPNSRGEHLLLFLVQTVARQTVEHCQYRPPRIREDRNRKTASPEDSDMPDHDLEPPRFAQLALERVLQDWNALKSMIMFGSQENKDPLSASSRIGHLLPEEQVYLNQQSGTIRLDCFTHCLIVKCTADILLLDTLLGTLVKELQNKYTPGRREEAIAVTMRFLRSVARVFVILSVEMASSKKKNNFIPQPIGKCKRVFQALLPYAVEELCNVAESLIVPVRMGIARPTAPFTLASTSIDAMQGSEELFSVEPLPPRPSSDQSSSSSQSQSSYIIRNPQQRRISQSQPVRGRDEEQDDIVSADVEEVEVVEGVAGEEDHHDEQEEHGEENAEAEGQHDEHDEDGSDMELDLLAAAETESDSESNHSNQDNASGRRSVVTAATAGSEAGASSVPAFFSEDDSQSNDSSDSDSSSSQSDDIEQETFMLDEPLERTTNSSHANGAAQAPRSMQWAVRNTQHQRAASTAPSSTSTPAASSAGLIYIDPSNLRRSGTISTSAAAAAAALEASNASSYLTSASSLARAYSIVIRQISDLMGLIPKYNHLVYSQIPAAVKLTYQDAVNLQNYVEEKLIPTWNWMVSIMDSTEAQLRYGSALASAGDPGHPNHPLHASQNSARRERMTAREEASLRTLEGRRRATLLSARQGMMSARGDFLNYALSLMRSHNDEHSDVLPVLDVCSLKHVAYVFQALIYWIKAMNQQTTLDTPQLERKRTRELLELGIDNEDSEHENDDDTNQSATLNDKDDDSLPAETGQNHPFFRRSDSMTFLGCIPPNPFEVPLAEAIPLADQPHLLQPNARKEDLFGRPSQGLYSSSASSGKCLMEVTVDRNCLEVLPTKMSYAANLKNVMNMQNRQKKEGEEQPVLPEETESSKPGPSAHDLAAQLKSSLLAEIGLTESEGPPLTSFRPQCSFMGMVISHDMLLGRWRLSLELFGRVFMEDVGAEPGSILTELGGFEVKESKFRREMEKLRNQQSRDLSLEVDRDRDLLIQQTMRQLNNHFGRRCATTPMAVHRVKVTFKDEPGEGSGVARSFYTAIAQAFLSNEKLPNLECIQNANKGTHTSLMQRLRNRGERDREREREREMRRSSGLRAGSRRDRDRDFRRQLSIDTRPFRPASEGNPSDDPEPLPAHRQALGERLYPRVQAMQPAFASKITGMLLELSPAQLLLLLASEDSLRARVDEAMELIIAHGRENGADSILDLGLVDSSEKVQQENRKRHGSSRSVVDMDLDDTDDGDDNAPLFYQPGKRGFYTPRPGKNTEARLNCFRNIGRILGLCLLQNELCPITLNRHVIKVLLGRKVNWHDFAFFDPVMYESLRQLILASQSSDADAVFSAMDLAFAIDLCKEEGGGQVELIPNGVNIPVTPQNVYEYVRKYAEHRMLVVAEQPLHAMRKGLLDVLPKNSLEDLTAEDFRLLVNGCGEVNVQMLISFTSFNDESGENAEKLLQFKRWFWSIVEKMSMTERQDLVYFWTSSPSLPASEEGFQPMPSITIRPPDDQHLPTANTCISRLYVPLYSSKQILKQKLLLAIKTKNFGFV
# UniProt O94874: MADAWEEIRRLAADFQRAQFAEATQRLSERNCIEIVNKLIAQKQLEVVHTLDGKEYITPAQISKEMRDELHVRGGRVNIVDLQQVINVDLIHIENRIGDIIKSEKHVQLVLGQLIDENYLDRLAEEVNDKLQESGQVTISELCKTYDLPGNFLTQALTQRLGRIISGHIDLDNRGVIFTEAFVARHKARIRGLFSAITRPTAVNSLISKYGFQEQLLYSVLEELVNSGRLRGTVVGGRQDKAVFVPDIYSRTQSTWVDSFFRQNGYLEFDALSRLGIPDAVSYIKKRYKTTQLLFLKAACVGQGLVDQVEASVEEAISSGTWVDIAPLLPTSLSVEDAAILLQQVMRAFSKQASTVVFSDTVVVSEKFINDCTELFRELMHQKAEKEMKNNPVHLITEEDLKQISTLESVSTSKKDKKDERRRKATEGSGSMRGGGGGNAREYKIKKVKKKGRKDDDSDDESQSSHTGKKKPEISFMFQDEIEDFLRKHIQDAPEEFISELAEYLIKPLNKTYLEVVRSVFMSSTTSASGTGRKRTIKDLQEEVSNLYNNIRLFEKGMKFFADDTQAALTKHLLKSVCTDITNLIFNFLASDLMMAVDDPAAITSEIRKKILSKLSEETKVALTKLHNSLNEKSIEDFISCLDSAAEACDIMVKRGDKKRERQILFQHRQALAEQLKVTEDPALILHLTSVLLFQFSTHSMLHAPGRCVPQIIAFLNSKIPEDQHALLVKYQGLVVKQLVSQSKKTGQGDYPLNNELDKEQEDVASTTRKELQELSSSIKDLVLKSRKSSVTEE
# UniProt Q9Y4E8: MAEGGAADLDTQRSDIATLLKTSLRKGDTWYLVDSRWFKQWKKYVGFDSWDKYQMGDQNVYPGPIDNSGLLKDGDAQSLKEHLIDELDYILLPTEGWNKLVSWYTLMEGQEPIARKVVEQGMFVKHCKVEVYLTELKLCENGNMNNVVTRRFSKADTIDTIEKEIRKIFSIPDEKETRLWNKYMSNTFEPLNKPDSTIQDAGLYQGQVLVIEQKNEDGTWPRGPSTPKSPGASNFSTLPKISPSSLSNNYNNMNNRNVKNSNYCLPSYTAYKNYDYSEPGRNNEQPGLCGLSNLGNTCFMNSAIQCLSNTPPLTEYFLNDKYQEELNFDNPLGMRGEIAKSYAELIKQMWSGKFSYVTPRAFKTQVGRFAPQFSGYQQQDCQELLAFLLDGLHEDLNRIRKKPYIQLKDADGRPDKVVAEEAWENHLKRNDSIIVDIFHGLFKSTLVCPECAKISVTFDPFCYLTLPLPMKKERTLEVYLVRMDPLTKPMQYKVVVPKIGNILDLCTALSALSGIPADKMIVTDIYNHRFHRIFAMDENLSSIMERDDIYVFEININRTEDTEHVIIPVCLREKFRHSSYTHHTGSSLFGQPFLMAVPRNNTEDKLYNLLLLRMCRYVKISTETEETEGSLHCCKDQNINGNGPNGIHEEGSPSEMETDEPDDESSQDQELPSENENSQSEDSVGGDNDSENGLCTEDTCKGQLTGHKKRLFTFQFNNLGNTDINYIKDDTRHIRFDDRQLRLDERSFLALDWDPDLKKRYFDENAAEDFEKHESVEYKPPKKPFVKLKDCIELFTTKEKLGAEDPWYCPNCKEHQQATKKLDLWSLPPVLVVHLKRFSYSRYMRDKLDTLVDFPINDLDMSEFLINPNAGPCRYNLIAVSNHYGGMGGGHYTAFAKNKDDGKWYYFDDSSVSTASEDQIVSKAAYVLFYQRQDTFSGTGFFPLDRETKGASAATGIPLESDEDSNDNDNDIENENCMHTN
# UniProt Q9UPT9: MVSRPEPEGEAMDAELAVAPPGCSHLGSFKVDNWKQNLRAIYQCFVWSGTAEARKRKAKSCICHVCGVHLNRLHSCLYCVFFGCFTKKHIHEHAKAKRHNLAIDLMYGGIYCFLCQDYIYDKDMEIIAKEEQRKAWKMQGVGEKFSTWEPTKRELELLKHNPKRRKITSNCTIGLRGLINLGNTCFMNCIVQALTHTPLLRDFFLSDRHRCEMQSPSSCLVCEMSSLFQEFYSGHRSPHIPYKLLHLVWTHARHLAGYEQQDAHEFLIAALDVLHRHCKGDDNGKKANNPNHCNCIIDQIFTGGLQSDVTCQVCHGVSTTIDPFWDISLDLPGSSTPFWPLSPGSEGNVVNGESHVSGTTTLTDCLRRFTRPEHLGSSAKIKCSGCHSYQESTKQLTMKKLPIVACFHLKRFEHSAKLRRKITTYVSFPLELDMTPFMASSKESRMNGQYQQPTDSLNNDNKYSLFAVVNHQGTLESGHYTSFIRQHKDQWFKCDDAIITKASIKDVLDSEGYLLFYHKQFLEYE
# This is one part of the list. Residues, ends and D or L forms follow the SMILES beside them. *: point of attachment. Cbz = O=C(OCc1ccccc1)*
# Assays:
# Assay in all cases: log2 fold change, soluble protein after heating vs DMSO (PISA); higher = thermal stabilisation; K562 cells, 10 uM, 30 min; active = over 0.2 and 3.5 SD of the protein, either way, in both replicates (recomputed)
# erlotinib = compound: C#Cc1cccc(Nc2ncnc3cc(OCCOC)c(OCCOC)cc23)c1 [erlotinib]
# Procedure, shortened: (§1)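 K562 cells at 2×10^6 cells/mL were given 10 μM compound for 30 min. Aliquots then went through 3 min of heating across 48°C-58°C, were pooled, and were extracted in PBS with 0.5% NP-40 at 4°C, and the supernatant after 21,000xg for 90 min was quantified by TMTpro 16plex LC-MS/MS with channel sums equalised. Thermal stability relative to control samples, from duplicates, is given as log2 fold change.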
# [1] = compound: C/C(=N\NC(=O)C1=CC(=CC=C1)S(=O)(=O)N2CCOCC2)/C3=C(C=CC(=C3)Cl)O
# Procedure, shortened: as §1
# [2] = compound: C1=CC(=C(C=C1Cl)C2=NC3=NC=CN=C3C(=N2)NC4=CC=NC=C4)F
# Procedure, shortened: as §1
# [3] = compound: C1=CC(=CC=C1C2=NC3=C(N2)C=C(C=C3)C(=O)N)OC4=CC=C(C=C4)Cl
# Procedure, shortened: as §1
# [4] = compound: C1=CC2=C(C=CC(=C2)/C=C\3/C(=O)NC(=NCC4=CC=CS4)S3)N=C1
# Procedure, shortened: as §1
# [5] = compound: C1=CC2=NC=CN=C2C=C1/C=C/3\C(=O)NC(=O)S3
# Procedure, shortened: as §1
# [6] = compound: C1=CC=C(C=C1)C2=NC(=C(N2)C3=CC=NC=C3)C4=CC(=C(C=C4)Cl)O
# Procedure, shortened: as §1
# [7] = compound: C1=CC=C2C(=C1)C3=NNC4=CC=CC(=C43)C2=O
# Procedure, shortened: as §1
# [8] = compound: C1CCN(C1)C(=O)NC2=CC=CC(=C2)NC3=NC=C(C(=N3)NCCC4=CN=CN4)Br
# Procedure, shortened: as §1
# [9] = compound: C1CN(CCC1(CC2=CC=C(C=C2)Cl)N)C3=NC=NC4=C3C=CN4
# Procedure, shortened: as §1
# IRAK-1-4 Inhibitor I = compound: C1COCCN1CCN2C3=CC=CC=C3N=C2NC(=O)C4=CC(=CC=C4)[N+](=O)[O-] [IRAK-1-4 Inhibitor I]
# Procedure, shortened: as §1
# ibrutinib = compound: C=CC(=O)N1CCC[C@@H](n2nc(-c3ccc(Oc4ccccc4)cc3)c3c(N)ncnc32)C1 [ibrutinib]
# Procedure, shortened: as §1
# [10] = compound: CC(=O)c1cnc2ccc(-c3cc(Cl)c(O)c(Cl)c3)nc2c1N[C@H]1CC[C@H](CN(C)C)CC1
# Procedure, shortened: as §1
# ralimetinib = compound: CC(C)(C)Cn1c(N)nc2ccc(-c3[nH]c(C(C)(C)C)nc3-c3ccc(F)cc3)nc21 [ralimetinib]
# Procedure, shortened: as §1
# [11] = compound: CC(C)(O)CC(=O)NCCn1ccc2ncnc(Nc3ccc(Oc4cccc(C(F)(F)F)c4)c(Cl)c3)c21
# Procedure, shortened: as §1
# [12] = compound: CC(C)C1=C2N=C(C=C(N2N=C1)NCC3=CC=CC=C3)NCCCCCCN
# Procedure, shortened: as §1
# [13] = compound: CC(C)C[C@@H](C=O)NC(=O)[C@H](CC(C)C)NC(=O)[C@H](CC(C)C)NC(=O)OCc1ccccc1
# Procedure, shortened: as §1
# pinometostat = compound: CC(C)N(C[C@H]1O[C@@H](n2cnc3c(N)ncnc32)[C@H](O)[C@@H]1O)[C@H]1C[C@@H](CCc2nc3cc(C(C)(C)C)ccc3[nH]2)C1 [pinometostat]
# Procedure, shortened: as §1
# [14] = compound: CC1=C(C(CC(=O)N1)C2=CC=C(C=C2)C(F)(F)F)C(=O)NC3=C(C=C4C(=C3)C=NN4)F
# Procedure, shortened: as §1
# [15] = compound: CC1=C(C2=C(C=C1)C(=O)C3=CC=CC=C3N2CCCN)C
# Procedure, shortened: as §1
Target,log2 fold change (erlotinib),log2 fold change [1],log2 fold change [2],log2 fold change [3],log2 fold change [4],log2 fold change [5],log2 fold change [6],log2 fold change [7],log2 fold change [8],log2 fold change [9],log2 fold change (IRAK-1-4 Inhibitor I),log2 fold change (ibrutinib),log2 fold change [10],log2 fold change (ralimetinib),log2 fold change [11],log2 fold change [12],log2 fold change [13],log2 fold change (pinometostat),log2 fold change [14],log2 fold change [15]
VCP (UniProt P55072),inactive: -0.01,inactive: -0.018,inactive: 0.037,inactive: 0.007,inactive: -0.016,inactive: -0.001,inactive: 0.013,inactive: -0.002,inactive: 0.028,inactive: 0.051,inactive: 0.046,inactive: 0.009,inactive: 0.029,inactive: -0.004,inactive: 0.013,inactive: 0.069,inactive: -0.045,inactive: -0.004,inactive: 0.027,inactive: -0.013
UQCC2 (UniProt Q9BRT2),inactive: 0.016,inactive: 0.001,inactive: 0.043,inactive: 0.008,inactive: 0.121,inactive: 0.024,inactive: -0.134,inactive: 0.045,inactive: -0.15,inactive: 0.077,inactive: 0.069,inactive: 0.023,inactive: -0.022,inactive: -0.188,inactive: 0.032,inactive: -0.072,inactive: 0.077,inactive: -0.046,inactive: 0.059,inactive: 0.025
UQCRB (UniProt P14927),inactive: 0.002,inactive: 0.002,inactive: 0.019,inactive: 0.001,inactive: -0.006,inactive: 0.034,inactive: -0.014,inactive: -0.012,inactive: 0.008,inactive: 0.018,inactive: 0.042,inactive: -0.01,inactive: -0.023,inactive: -0.055,inactive: -0.008,inactive: 0.073,inactive: -0.012,inactive: -0.069,inactive: 0.001,inactive: 0.036
UBQLN1 (UniProt Q9UMX0),inactive: -0.008,inactive: -0.049,inactive: 0.037,inactive: -0.019,inactive: -0.004,inactive: 0,inactive: 0.02,inactive: 0.016,inactive: -0.004,inactive: 0.004,inactive: 0.034,inactive: 0.054,inactive: 0,inactive: 0.019,inactive: 0.045,inactive: 0.104,inactive: -0.004,inactive: -0.082,inactive: -0.031,inactive: 0.019
VANGL1 (UniProt Q8TAA9),inactive: 0.022,inactive: -0.136,inactive: -0.2,inactive: 0.052,inactive: 0.08,inactive: 0.031,inactive: -0.006,inactive: -0.087,inactive: -0.106,inactive: 0.104,inactive: -0.038,inactive: 0.022,inactive: -0.12,inactive: 0.041,inactive: 0.041,inactive: 0.068,inactive: 0.076,inactive: 0.066,inactive: 0.078,inactive: -0.053
UBR5 (UniProt O95071),inactive: -0.076,inactive: 0.007,inactive: -0.056,inactive: -0.025,inactive: -0.023,inactive: 0.051,inactive: -0.041,inactive: -0.136,inactive: 0.024,inactive: -0.101,inactive: -0.057,inactive: -0.034,inactive: -0.002,inactive: 0.056,inactive: 0.022,inactive: -0.042,inactive: 0.041,inactive: 0.046,inactive: 0.078,inactive: -0.183
UBE4B isoform 4 (UniProt O95155),inactive: -0.01,inactive: 0.026,inactive: 0.041,inactive: -0.016,inactive: 0,inactive: 0.055,inactive: 0.026,inactive: -0.013,inactive: -0.008,inactive: -0.025,inactive: 0.008,inactive: -0.031,inactive: 0.006,inactive: 0.057,inactive: -0.117,inactive: -0.041,inactive: 0.047,inactive: 0,,inactive: -0.005
UPF3B (UniProt Q9BZI7),inactive: -0.108,inactive: -0.149,active: -0.703,inactive: 0.088,inactive: -0.053,inactive: -0.072,inactive: -0.019,inactive: -0.016,inactive: 0.117,inactive: -0.097,inactive: -0.099,inactive: 0.158,inactive: 0.265,inactive: 0.27,inactive: 0.057,inactive: -0.02,inactive: 0.19,inactive: 0.394,,inactive: -0.183
UFL1 (UniProt O94874),inactive: 0.06,inactive: 0.075,inactive: 0.037,inactive: -0.03,inactive: 0.021,inactive: 0.021,inactive: 0.069,inactive: 0.096,inactive: -0.012,inactive: -0.101,inactive: -0.048,inactive: -0.037,inactive: -0.022,inactive: 0.073,inactive: -0.055,inactive: -0.142,inactive: 0.015,inactive: 0.042,,inactive: 0.026
UBR2 (UniProt Q8IWV8),inactive: 0.019,inactive: 0.067,inactive: -0.108,inactive: 0.051,inactive: 0.045,inactive: 0.046,inactive: -0.08,inactive: -0.189,inactive: 0.016,inactive: 0.018,inactive: 0.002,inactive: -0.102,inactive: -0.11,inactive: 0.029,inactive: -0.086,inactive: -0.058,active: 0.351,inactive: 0.137,,inactive: 0.076
UTP14A (UniProt Q9BVJ6),inactive: -0.142,inactive: -0.15,inactive: -0.301,inactive: 0.06,inactive: -0.075,inactive: -0.005,inactive: -0.06,inactive: -0.045,inactive: 0.006,inactive: -0.155,inactive: -0.13,inactive: -0.026,inactive: 0.088,inactive: 0.11,inactive: 0.007,inactive: -0.113,inactive: 0.154,inactive: 0.262,,active: -0.708
USP15 (UniProt Q9Y4E8),inactive: 0.026,inactive: 0.078,inactive: 0.08,inactive: -0.015,inactive: 0.027,inactive: 0.031,inactive: 0,inactive: 0.012,inactive: -0.011,inactive: -0.031,inactive: -0.028,inactive: -0.034,inactive: 0.008,inactive: -0.004,inactive: -0.067,inactive: -0.154,inactive: 0.012,inactive: 0.012,,inactive: -0.019
USP9X (UniProt Q93008),inactive: 0.012,inactive: 0.06,inactive: -0.012,inactive: -0.029,inactive: 0.026,inactive: 0.008,inactive: 0.013,inactive: -0.033,inactive: 0.002,inactive: -0.002,inactive: -0.006,inactive: -0.041,inactive: -0.011,inactive: 0.02,inactive: -0.117,inactive: -0.177,inactive: 0.01,inactive: 0.042,,inactive: 0.038
UHRF1BP1L (UniProt A0JNW5),inactive: -0.024,inactive: 0.017,inactive: 0.016,inactive: 0.027,inactive: 0.042,inactive: 0.01,inactive: -0.009,inactive: 0.025,inactive: -0.007,inactive: 0.061,inactive: 0.018,inactive: -0.051,inactive: -0.076,inactive: -0.009,inactive: 0.193,active: 0.242,inactive: -0.004,inactive: 0.03,,inactive: -0.019
USO1 isoform 2 (UniProt O60763),inactive: -0.008,inactive: 0.046,inactive: 0.051,inactive: -0.028,inactive: -0.049,inactive: 0.059,inactive: 0.004,inactive: -0.028,inactive: 0.033,inactive: -0.014,inactive: 0.05,inactive: -0.025,inactive: 0.066,inactive: 0.004,inactive: -0.061,inactive: -0.108,inactive: -0.01,inactive: 0.008,,inactive: -0.005
"VARS2, A0A0G2JL52",inactive: 0.012,inactive: 0.006,inactive: -0.002,inactive: 0,inactive: 0.046,inactive: -0.006,inactive: 0.026,inactive: 0.003,inactive: 0.006,inactive: -0.01,inactive: 0.012,inactive: 0.014,inactive: -0.03,inactive: 0.064,inactive: -0.074,inactive: -0.177,inactive: 0.025,inactive: -0.014,,inactive: 0.082
USP22 (UniProt Q9UPT9),inactive: 0.009,inactive: 0.101,inactive: 0.045,inactive: 0.046,inactive: 0.002,inactive: 0.15,,inactive: -0.014,inactive: -0.059,inactive: 0.043,inactive: -0.038,inactive: -0.111,inactive: -0.184,,inactive: -0.176,inactive: -0.06,,inactive: 0.029,inactive: -0.024,inactive: 0.046

# An excerpt from above, showing only log2 fold change [3]:
Target | log2 fold change [3]
VANGL1 (UniProt Q8TAA9) | inactive: 0.052
VARS2, A0A0G2JL52 | inactive: 0
